Data taken from ChEMBL document CHEMBL3988442, “University of Dundee, Small-Polar-MMV Screening Library” (2021).

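Cell assay of Leishmania donovani living inside macrophages; the read-out is not stated. Tested at 30 µM. Higher reads as stronger inhibition (inferred: compounds with an IC50 in retests scored well above the rest). About 69,000 compounds were tested under these conditions; 1.5% (about 1,000) showed 50% or more at least once.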

Results are given as percent effect. How 0% and 100% were set is not recorded. Most values in the screen are low, and negative values occur. The compounds are a random part of those screened. Two or more numbers in one place are separate tests of the same structure; such repeats can differ widely.

structure,percent effect
O=C1CC(c2ccc(C(=O)O)cc2)c2ncn(-c3ccccc3Cl)c2N1 (centres undefined),27.39
CC1c2cccn2CCN1C(=O)CCCc1nc(-c2ccco2)no1 (centres undefined),28.82
CC(C)N1c2sc(-c3ccsc3)nc2CC1C(=O)NC1CCCC1 (centres undefined),20.43
Cc1ccc(-c2cc(C(=O)O)sn2)cc1,-12.69
CCn1nc(C(=O)N2CCCC2c2noc(C3CC3)n2)ccc1=O (centres undefined),-18.63
CS(=O)(=O)N1CCC(Oc2ccc(C(=O)N3CCSCC3)cc2Cl)CC1,26.44
Cc1cc(C)n(C2CCCN(C(=O)c3c(C)noc3C)C2)n1 (centres undefined),-8.603
CN1CCN(c2ccc(Br)cc2NC(=O)c2ccco2)CC1,53.58
c1ccc(CNc2nc(N3CCOCC3)nc3nccnc23)cc1,11.65
Cn1cc(C(C)(O)CNc2ccc(Cl)c(C#N)n2)cn1 (centres undefined),7.867
Cc1ccc(O)c(CN(Cc2ccccc2)Cc2nccs2)n1,2.049
CCC(CNC(=O)Cc1c(C)noc1C)N1CCCC1 (centres undefined),-6.716
COc1ccccc1C(=O)Nc1c(F)c(C(=O)NCCC(C)C)nn1C,-0.5181
CC(C)=CCN1CCN(Cc2cc(C)n[nH]2)CC1CCO (centres undefined),-13.14
CN(C)C(C(=O)N1Cc2ccccc2C1)c1ccccc1F (centres undefined),10.92
CNc1ccc(CC2CCCN(C(=O)c3cnco3)C2)nn1 (centres undefined),15.23 & 23.07
COc1c(C2CCCN2CC(=O)Nc2cc(C)nn2C)c(C)nn1C (centres undefined),-1.126
CN(C)c1ncccc1CNc1snc(Cl)c1C#N,-27.87
Cc1cnn(CC(C)NCc2nc(-c3ccoc3)no2)c1 (centres undefined),35.16
O=C1OCCC1N1CCN(c2cnccn2)CC1 (centres undefined),36
CCN1CC(COC(=O)c2ccc(Br)cc2F)CC1=O (centres undefined),87.43
Cn1cnc2c1CCN(Cc1csc(-c3ccco3)n1)C2,12.82
O=c1[nH]nc2c(S(=O)(=O)N3CCCC3)cccn12,30.08
O=C1CCc2cc(-c3csc(CCN4CCOC4=O)n3)c(F)cc2N1,-11.05
Cc1ccc(=O)n(CC2(O)CCN(Cc3c(F)cccc3F)CC2)n1,15.47
CNS(=O)(=O)CCCn1nnc(-c2ccc(F)c(C)c2)n1,-12.85
N#Cc1ccc(CN2CCC(CN3CCOCC3)C2)cc1 (centres undefined),16.83
COc1ccc(C(=O)N2CCN(C(=O)CCCc3cn[nH]c3)CC2)cc1,15.41
CCN(CC1CCOC1)C(=O)Nc1ccc(OC)nc1 (centres undefined),6.715
Cc1nnc(C(C)N2CCN(Cc3noc(C(C)(C)C)n3)CC2)o1 (centres undefined),21.47
COc1ccc2[nH]cc(C(=O)CNc3nccs3)c2c1.I,8.76
O=C(O)C(F)(F)F.[H][C@@]12CCN(S(=O)(=O)CC)CC[C@]1(C(=O)N1CCOCC1)CCN2CC,10.97
CS(=O)(=O)NC1CCN(CCOCc2ccccc2)CC1,19.47
O=C(CCN1CCOCC1)NC1CCCN(CC2CCCCC2)C1 (centres undefined),10.41
[H][C@@]12CS(=O)(=O)C[C@]1([H])N(C(=O)c1cc(-c3cccn3C)n[nH]1)CCN2CC,-70.51
OCCN(Cc1cccnc1)c1ccc(Br)cn1,20.73
O=C(CS(=O)(=O)CC1CCCCC1)NC1CCCCNC1=O (centres undefined),6.48
CC(=O)NCCCNCc1c(C)nn(CC(C)C)c1N(C)C,-14.4
CCN(Cc1nnsc1Cl)C(C)c1ccc(C#N)cc1 (centres undefined),9.782
O=C(O)C(F)(F)F.[H][C@@]12CCN(c3ncccn3)C[C@]1([H])CN(C(=O)CC(C)C)C2,12.14
Cl.c1cnc(Nc2cc(CCC3CCCNC3)ccn2)cn1 (centres undefined),22.86
COc1ccc(Cl)cc1C(=O)NC(CC(=O)O)c1cccs1 (centres undefined),12.46
CN1CC(C(=O)NC2(c3ccc(Cl)cc3)CCOCC2)CC1=O (centres undefined),5.637
c1csc(C2(NCc3csc(C4CC4)n3)CCCC2)n1,-1.272
Cc1ncccc1NC(=O)C1=NOC2(CCN(Cc3nccs3)C2)C1 (centres undefined),1.163
O=C(O)C(F)(F)F.O=C(O)C(F)(F)F.[H][C@@]12CN(CC3CCOCC3)C[C@]1([H])OCCN2CC(=O)NC,5.772
O=C(CN1C=Nc2ccccc2S1(=O)=O)NCc1ccccc1F,0.6709
O=C(Cc1cccc(Cl)c1)N[C@@H]1CCNC[C@H]1O,-4.847
Cc1ccc(CN2CCOC3(COCCN(C(C)C)C3)C2)o1.O=C(O)C(F)(F)F.O=C(O)C(F)(F)F (centres undefined),1.642
Cc1ccc(C(=O)N2CCC3(CC2)CC(c2ccccc2)C(=O)N3)o1 (centres undefined),21.36
Cc1c(CCC(=O)N2CCCC2c2ccnc(N(C)C)c2)cnn1C (centres undefined),23.71
Cc1nc(-c2ccoc2)n(CC(=O)NCC(C)C)c1C,25.34
CC(C(N)=O)N(C)CCCc1cc(-c2ccc(F)cc2)n(C)n1 (centres undefined),7.357
COc1cc(C)nc(N2CCN(C(=O)c3ccn(C)c(=O)c3)CC2)n1,26.93
Cc1ccc(CN(C)C(=O)Cn2nc(-c3ccc(F)cc3)oc2=O)cc1,4.471
O=C1CC[C@H](C(=O)N(Cc2cccc(Br)c2)C2CC2)N1,50.36
Cc1ccc2c(c1)c(C)cc(=O)n2CC(=O)O,3.85
CC(=O)c1cc(CC(=O)N2CCN(S(=O)(=O)c3ccccc3)CC2)cs1,5.302
Cc1nc(S(=O)(=O)NCCC(=O)NCc2ccsc2)cn1C,14.8